Test results reported in paper PMC8810859.
These are yes or no findings as the source states them, for the method shown. In cells and extracts the contact can be indirect. Some binding calls cover weakened binding; strength is not graded here. For some assays here: Where a sequence is shown, tags or fusion partners need not be part of it.

Sequences of proteins named here, by UniProt entry; tags and fusion partners are left off.
UniProt P40337: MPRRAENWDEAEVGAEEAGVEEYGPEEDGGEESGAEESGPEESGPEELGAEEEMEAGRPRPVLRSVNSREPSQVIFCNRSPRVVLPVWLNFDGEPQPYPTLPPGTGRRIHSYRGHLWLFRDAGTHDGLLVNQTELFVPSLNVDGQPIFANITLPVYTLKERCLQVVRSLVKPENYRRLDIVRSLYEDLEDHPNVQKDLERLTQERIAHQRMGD

Legend:
[1] = molecular target: T1, ectopic OTUD6B (myc-tagged) (human) (UniProt Q8N6M0); experiment: co-IP; HEK293T transfected with the constructs; lysate immunoprecipitated with anti-myc antibody, blotted with anti-flag or anti-myc
T1 sequence: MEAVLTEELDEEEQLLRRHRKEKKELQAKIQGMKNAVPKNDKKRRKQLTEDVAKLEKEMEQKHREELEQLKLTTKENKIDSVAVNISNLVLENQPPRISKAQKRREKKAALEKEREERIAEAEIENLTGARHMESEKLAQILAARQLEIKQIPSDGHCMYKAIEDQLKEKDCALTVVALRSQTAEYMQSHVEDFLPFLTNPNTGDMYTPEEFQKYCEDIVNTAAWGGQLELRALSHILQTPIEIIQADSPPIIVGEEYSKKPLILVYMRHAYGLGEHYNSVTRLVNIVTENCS

[2] = molecular target: T2, Deubiquitylase ovarian tumor domain-containing 6B (OTUD6B), endogenous (human (endogenous in ACHN)) (UniProt Q8N6M0); experiment: co-IP; endogenous proteins from ACHN cell lysates; HEPES lysis buffer, protein A/G agarose beads, 4 °C
T2 sequence: T1 sequence

binding [1] | binding [2] | Substance
binds | – | flag-pVHL wild type (from UniProt P40337 1-213)
– | binds | VHL protein (pVHL), endogenous wild type (from UniProt P40337 1-213)
